# Reference: the supplement of paper PMC6411743
# Protein sequences, listed by entry. Tags and fused reporters are not part of them. Lines headed by an entry give the natural chain unless they say otherwise; changes in a name come on top.
# UniProt Q6PD74: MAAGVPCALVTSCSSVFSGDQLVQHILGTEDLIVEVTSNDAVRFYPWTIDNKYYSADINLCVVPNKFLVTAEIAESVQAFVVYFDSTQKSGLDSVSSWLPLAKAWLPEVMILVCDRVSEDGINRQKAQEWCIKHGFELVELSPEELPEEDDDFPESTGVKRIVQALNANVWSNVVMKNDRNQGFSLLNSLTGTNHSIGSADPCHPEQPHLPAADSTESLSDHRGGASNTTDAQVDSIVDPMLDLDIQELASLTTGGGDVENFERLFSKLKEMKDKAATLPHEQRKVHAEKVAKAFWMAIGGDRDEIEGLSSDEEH
# UniProt Q6UXB8: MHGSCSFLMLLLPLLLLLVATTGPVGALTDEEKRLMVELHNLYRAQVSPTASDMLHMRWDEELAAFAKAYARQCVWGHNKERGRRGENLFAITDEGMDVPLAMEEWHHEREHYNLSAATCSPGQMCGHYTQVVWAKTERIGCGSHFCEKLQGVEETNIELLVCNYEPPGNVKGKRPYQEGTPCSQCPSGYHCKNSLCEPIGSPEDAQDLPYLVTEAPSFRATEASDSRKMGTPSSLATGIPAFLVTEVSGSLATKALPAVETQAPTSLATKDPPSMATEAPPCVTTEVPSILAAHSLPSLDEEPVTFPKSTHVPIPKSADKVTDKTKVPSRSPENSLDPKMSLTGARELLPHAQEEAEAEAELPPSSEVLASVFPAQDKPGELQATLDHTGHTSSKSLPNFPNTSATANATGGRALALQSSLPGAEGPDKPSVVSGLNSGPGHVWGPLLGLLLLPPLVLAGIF
# UniProt Q86W50: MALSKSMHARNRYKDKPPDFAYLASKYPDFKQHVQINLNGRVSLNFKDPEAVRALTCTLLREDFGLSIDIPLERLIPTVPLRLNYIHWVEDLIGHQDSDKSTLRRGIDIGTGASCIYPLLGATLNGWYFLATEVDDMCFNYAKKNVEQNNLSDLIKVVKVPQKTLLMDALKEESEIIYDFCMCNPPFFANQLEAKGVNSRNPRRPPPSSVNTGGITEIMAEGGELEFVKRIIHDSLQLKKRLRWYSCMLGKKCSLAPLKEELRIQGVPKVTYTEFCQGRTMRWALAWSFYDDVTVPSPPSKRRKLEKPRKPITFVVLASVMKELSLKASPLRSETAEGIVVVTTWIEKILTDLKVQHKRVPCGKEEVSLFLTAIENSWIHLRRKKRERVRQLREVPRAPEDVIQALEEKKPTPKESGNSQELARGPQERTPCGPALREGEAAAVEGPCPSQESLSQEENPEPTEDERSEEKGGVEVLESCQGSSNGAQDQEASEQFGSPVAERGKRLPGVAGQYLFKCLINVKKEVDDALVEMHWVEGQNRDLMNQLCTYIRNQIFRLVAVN
# UniProt Q7Z5R6: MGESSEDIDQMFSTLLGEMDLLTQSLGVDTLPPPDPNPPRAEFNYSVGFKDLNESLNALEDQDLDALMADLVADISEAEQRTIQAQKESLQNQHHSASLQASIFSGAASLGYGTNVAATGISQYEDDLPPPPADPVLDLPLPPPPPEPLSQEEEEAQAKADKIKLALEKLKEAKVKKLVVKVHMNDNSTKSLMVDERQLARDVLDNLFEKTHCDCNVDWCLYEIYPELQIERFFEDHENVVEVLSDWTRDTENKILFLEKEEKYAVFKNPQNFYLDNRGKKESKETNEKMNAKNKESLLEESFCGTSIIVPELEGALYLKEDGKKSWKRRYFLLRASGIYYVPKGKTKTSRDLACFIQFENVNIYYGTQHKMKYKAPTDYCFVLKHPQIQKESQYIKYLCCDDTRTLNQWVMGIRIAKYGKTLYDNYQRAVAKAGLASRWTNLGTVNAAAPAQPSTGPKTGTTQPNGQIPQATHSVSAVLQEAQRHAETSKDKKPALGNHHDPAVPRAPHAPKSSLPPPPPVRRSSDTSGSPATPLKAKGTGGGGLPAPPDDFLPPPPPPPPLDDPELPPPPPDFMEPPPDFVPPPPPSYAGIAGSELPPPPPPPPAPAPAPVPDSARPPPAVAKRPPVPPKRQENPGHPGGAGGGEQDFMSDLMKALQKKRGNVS
# UniProt Q6ZNW5: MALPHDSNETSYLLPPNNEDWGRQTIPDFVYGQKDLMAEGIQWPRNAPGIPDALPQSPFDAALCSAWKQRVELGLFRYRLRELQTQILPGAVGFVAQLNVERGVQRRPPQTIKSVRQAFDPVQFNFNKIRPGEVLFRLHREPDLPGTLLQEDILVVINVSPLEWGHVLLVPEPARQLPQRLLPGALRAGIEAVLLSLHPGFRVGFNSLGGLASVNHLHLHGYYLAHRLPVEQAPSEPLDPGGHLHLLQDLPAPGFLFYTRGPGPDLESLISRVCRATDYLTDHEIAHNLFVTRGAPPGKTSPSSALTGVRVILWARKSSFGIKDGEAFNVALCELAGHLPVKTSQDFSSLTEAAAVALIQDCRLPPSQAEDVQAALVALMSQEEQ
# ± gives the standard deviation of the averaged measurements. Some of the results follow.
# Compound: Nc1nc2c(ncn2[C@@H]2O[C@H](COP(=O)(O)OP(=O)(O)OP(=O)(O)O)[C@@H](O)[C@H]2O)c(=O)[nH]1 [guanosine triphosphate]
# Experiment: NP40-soluble protein abundance relative to vehicle (solubility fold change) (ratio); higher = more soluble protein in presence of GTP
# Experimental: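 Solubility proteome profiling in Jurkat crude lysate. Lysate was treated with Mg-GTP (0.1-10 mM) for 10 min at room temperature and 3 min at 37 °C, then solubilised with 0.8% NP40 and benzonase, followed by ultracentrifugation. Proteins were quantified by TMT10 LC-MS/MS; the value is the NP40-soluble abundance relative to the NP40-processed vehicle, from 3 independent experiments.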
Target,NP40-soluble protein abundance (concentration: 0.1mM),NP40-soluble protein abundance (concentration: 0.5mM),NP40-soluble protein abundance (concentration: 1mM),NP40-soluble protein abundance (concentration: 2mM),NP40-soluble protein abundance (concentration: 4mM),NP40-soluble protein abundance (concentration: 6mM),NP40-soluble protein abundance (concentration: 8mM),NP40-soluble protein abundance (concentration: 10mM)
UniProt Q6PD74 and related entries,1.04 ± 0.029,1.01 ± 0.088,1.04 ± 0.092,0.987 ± 0.081,0.943 ± 0.059,0.951 ± 0.12,1 ± 0.057,0.979 ± 0.071
UniProt Q6UXB8 and related entries,0.896 ± 0.081,0.922 ± 0.062,0.955 ± 0.063,0.919 ± 0.11,0.902 ± 0.12,0.924 ± 0.082,0.929 ± 0.086,0.918 ± 0.06
UniProt Q86W50,0.9903 ± 0.0097,1.006 ± 0.009,0.955 ± 0.042,0.971 ± 0.025,0.934 ± 0.047,0.936 ± 0.05,0.91 ± 0.061,0.929 ± 0.056
APBB1IP (UniProt Q7Z5R6),0.985 ± 0.038,0.945 ± 0.029,0.918 ± 0.038,0.931 ± 0.059,0.906 ± 0.065,0.923 ± 0.067,0.89 ± 0.05,0.874 ± 0.068
UniProt Q6ZNW5 and related entries,1.15 ± 0.048,1.03 ± 0.089,0.986 ± 0.023,0.908 ± 0.035,0.998 ± 0.031,0.946 ± 0.017,0.904 ± 0.055,0.872 ± 0.038
